The record followed here is patent US4382892A, “Benzoxazine derivatives” (Daiichi Seiyaku Co., Ltd., priority 1980, dated 1983).

The subject of data set [1] is mice. The settings on record: mice (i.v.).
A short description of data set [2]: in vivo. The following applies: mouse, iv.

The LD50 is the dose expected to kill half of the subjects tested. Lower therefore signals greater toxicity. Regarding `CCn1cc(C(=O)O)c(=O)c2cc(F)c(N3CCN(C)CC3)cc21` [1-ethyl-6-fluoro-4-oxo-7-(4-methyl-1-piperazinyl)quinoline-3-carboxylic acid], the “toxicity (in words)” value in data set [1] was “comparatively high toxicity”. Besides, the LD50 in data set [2] amounted to 225 mg/kg.
